From CN111057148A
Numbering of substitutions follows the chain as printed. These are yes or no findings as the source states them, for the method shown. Some results given as binding are weak or reduced against the parent protein; the word gives no strength.

Protein sequences, listed by entry. Tags and fused reporters are not part of them. Residues count along the entry.
UniProt P02769, residues 25-607: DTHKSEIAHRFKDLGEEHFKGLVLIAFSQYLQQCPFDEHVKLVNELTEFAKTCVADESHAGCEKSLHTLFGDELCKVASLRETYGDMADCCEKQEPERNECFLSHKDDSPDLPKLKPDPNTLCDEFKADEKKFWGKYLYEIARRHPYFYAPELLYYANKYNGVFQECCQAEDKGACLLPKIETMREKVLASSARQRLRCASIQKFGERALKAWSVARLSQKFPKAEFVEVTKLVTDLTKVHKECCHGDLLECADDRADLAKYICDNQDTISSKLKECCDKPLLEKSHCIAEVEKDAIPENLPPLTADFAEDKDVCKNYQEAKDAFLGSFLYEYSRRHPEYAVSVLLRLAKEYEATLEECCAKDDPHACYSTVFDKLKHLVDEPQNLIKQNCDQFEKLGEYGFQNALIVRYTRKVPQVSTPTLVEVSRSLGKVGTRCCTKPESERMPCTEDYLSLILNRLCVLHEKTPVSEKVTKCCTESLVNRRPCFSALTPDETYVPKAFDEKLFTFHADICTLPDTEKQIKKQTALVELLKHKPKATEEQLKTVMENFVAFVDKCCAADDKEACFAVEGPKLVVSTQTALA

B1: 2D6的人源Fc融合重组单域抗体 (Fc fusion, 人源 (human), not shown: a dimerising Fc or GST; small tags and cut ends)
chain: QVQLQESGGGSVQTGGSLRLSCAASGNSDGAWSMGWFRQAPGKEREGVAALYVFTGITYYAGSVKGRFTISQDKAKNTVYLQMNSLKPEDTAMYYCAAGTAFPTLNRNKYNYWGQGTQVTVSS
B2: 单域抗体1D10 (VHH, not shown: small tags and cut ends)
VHH: QVQLQESGGGSVQAGGSLRLSCAASGYTGSVNYMAWFRQAPGKEREGVAAIYGYGGSTYYADSVKGRFTISRDNAKNTVYLQMNSLIPEDTASYYCASDQSRRSWLSPLVPGKYSLWGQGTQVTVSS
B3: 单域抗体2D8 (VHH, not shown: small tags and cut ends)
VHH: B2 VHH with A23E, A40P, Y54G, S63A, L106F, S107P
B4: 单域抗体1D8 (VHH, not shown: small tags and cut ends)
VHH: QVQLQESGGGSVQAGGSLRLSCAASGYTYSSSYMGWFRQAPGKEREGVAVIYTTGGRTYYADSVKGRFTISRDNAKNTVYLQMNSLKPEDTAMYYCAADGSRRNWYSPLDPRKYNYWGQGTQVTVSS
B5: 单域抗体1D11 (VHH, not shown: small tags and cut ends)
VHH: QVQLQESGGGSVQAGGSLRLSCTASGYTHRMAWFRQAPGKEREGVAAIYTDVGHTYYAASVKGRFTIAQDNANNTAYLQMNSLKPEDTAIYYCAAARGGYSWRKVNEYNYWGQGTQVTVSS
B6: 单域抗体1C6 (VHH, not shown: small tags and cut ends)
VHH: QVQLQESGGGSVQAGGSLRLSCVVSGYAYSTNYMGWFRQAPGKEREGVAVIYTTVGTTYYADSVKGRFTISQDNAKNTVSLQMNSLQPEDTAMYYCAAVRRPWRLDSLDPSSFRYWGQGTQVTVSS
B7: 单域抗体1D6 (VHH, not shown: small tags and cut ends)
VHH: B6 VHH with S85G
B8: 单域抗体2B3 (VHH, not shown: small tags and cut ends)
VHH: QVQLQESGGGSVQTGGSLRLSCAASGSTDRRNYMAWFRQAPGKEREGVAAIGTISGFTHYADSVKGRFTISQDNARNTVYLQMNRMIPEDTAMYYCAADSRTRVIIGWFLNPDKYNYWGRGTQVTVSS
B9: 单域抗体1D3 (VHH, not shown: small tags and cut ends)
VHH: QVQLQESGGGSVQAGGSLRLSCAASEYTSSVTFMAWVRQAPGKEREGVATIYTVTGRSYYADSVKGRFTISQDKAKNTVYLQMNSLKPEDTAMYYCAATPFSLSKATRLAKFGSLNENEYDLWGQGTQVTVSS
B10: 单域抗体1B4 (VHH, not shown: small tags and cut ends)
VHH: QVQLQESGGGSVQAGGSLRLSCVASRYMGSTYYMAWFRQAPGKEREGVAAIYIASGNSGSTYYADSVKGRFTISRDNAKNTVYLQMNSLIPEDTASYYCASDLSRRNWLPPLVPGKYSLWGQGTQVTVSS
B11: 单域抗体2B1 (VHH, not shown: small tags and cut ends)
VHH: QVQLQESGGGSVQAGGSLRLSCAVSGYTLSNKWMGWFRQAPGKEREGVAAIYTGGGRTDYADSVKGRFTISQDNAQNTLYLQMNSLKPEDTAMYYCAAARGYGQNWYRTLRTEAYDIWGQGTQVTVSS

Target: 牛血清白蛋白(BSA) (牛 (bovine)) (UniProt P02769)
Test: ELISA, BSA coated on plate, human Fc fusion VHH, HRP anti-human Fc detection, OD450

binding | Binder
binds | B1

Target: 生物素标记的BSA蛋白(BSA-Biotin) (牛 (bovine)) (UniProt P02769)
Test: ELISA of crude periplasmic extract on BSA-Biotin captured by neutravidin; positive = OD450 more than 5x control well

binding | Binder
binds | B2
binds | B3
binds | B4
binds | B5
binds | B6
binds | B7
binds | B8
binds | B9
binds | B10
binds | B11

Target: 牛血清白蛋白(BSA) (牛 (bovine)) (UniProt P02769)
Test: ELISA, BSA coated 100 ng/100 µL, E. coli-expressed VHH, HRP anti-HA detection, OD450

binding | Binder
binds | B2
binds | B3
binds | B4
binds | B5
binds | B6
binds | B7
binds | B8
binds | B9
binds | B10
binds | B11
